In PubChem BioAssay AID651789 (National Center for Advancing Translational Sciences (NCATS), 2012):
Inconclusive results, whose numbers are uncertain, are shown with a selection of clear calls. Potencies beside an inconclusive call are fits to weak or partial responses and may not hold up. Activity calls are given as the source filed them. The call rests on the fitted dose curve; in most records, active means well fitted inhibition curve with a large enough effect; inconclusive means small, poorly fitted or top-dose-only effect; inactive means no such curve, though single readings can be large or run the other way.

Assay: Acumen qHTS Assay for Inhibitors of the mTORC1 Signaling Pathway in WT MEF Cells: Hit Validation; further: nearly all actives have a fitted effect of over 60% in size
How it was run: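 Read-out is immunofluorescent phospho-rpS6 (Ser235/236) normalised to PI-stained cell number, reported as % active cells using a 7.5 nM rapamycin threshold. Cells: WT or Tsc2-/-, p53-/- MEFs, compound-exposed 24 h at 37C; PI count also tracks viability.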
Potency means the concentration at half of the fitted maximal effect.

SMILES: CCCN1C(=O)C(O)(CC(=O)c2ccc(C(C)C)cc2)c2ccccc21 (stereo not drawn)
- Potency: inconclusive: 23.3 µM [inhibitor, single point]

SMILES: Cc1cc(C)cc(Nc2cc(C(=O)NCCCN(C)C3CCCCC3)c3ccccc3n2)c1
- Potency: inconclusive: 6.56 µM [inhibitor, partial curve, poor fit]

SMILES: FC(F)(F)c1cccc(Nc2nc3nonc3nc2Nc2ccc(Cl)cc2)c1
- Potency: inconclusive: 4.65 µM [inhibitor, full curve]

SMILES: CCOc1ccccc1NS(=O)(=O)c1ccc(-c2cnc(C3CC3)o2)cc1
- Potency: inconclusive: 0.147 µM [inhibitor, full curve]

SMILES: CCN(c1ccccc1)S(=O)(=O)c1cc(C(=O)Nc2ccc(Br)cc2)ccc1F
- Potency: active: 13.1 µM

SMILES: Cc1cc(C)c(NC(=O)c2sc3nc(C)cc(C)c3c2NC(=O)c2ccccc2)c(C)c1
- Potency: inactive

SMILES: CCOC(=O)C(Cc1c[nH]c2ccccc12)NC(=O)COc1ccc(Cl)cc1 (stereo not drawn)
- Potency: inactive

SMILES: Cc1ccc2nc(-c3cccc(NC(=O)CSc4ccc(Cl)cc4)c3)oc2c1
- Potency: inconclusive: 23.3 µM [inhibitor, single point]

SMILES: Cc1cccc(CS(=O)(=O)c2ncc(Cl)c(C(=O)Nc3nnc(C(C)C)s3)n2)c1
- Potency: active: 14.7 µM

SMILES: O=C(NCc1ccc(F)cc1)c1ccc2c(Cl)c3c(nc2c1)CCCC3
- Potency: inactive

SMILES: CCOC(=O)c1c(-c2ccccc2)oc2ccc(NS(=O)(=O)c3ccc(OC)cc3)cc12
- Potency: inconclusive: 2.07 µM [inhibitor, full curve]

SMILES: C=CCNC1=C2C[C@@H](C)C[C@H](OC)[C@H](O)[C@@H](C)/C=C(\C)[C@H](OC(N)=O)[C@@H](OC)/C=C\C=C(/C)C(=O)NC(=CC1=O)C2=O
- Potency: active: 0.515 µM

SMILES: CCOc1ccc(S(=O)(=O)N(C(=O)c2ccncc2)c2ccc3oc(C)c(C(=O)OC)c3c2)cc1
- Potency: active: 14.7 µM

SMILES: COc1ccc(NC(=O)c2c(C)oc3ccc(O)c(CN4CCCC(C)C4)c23)cc1Cl (stereo not drawn)
- Potency: inconclusive: 26.1 µM [inhibitor, single point]

SMILES: CCOC(=O)c1cnc2c(ccc3ccccc32)c1Nc1ccc(OC)cc1OC
- Potency: inconclusive: 11.7 µM [inhibitor, partial curve]

SMILES: COc1cccc(-n2c(-c3ccco3)nc3c(cnn3-c3ccc(C)cc3)c2=O)c1
- Potency: inactive

SMILES: O=c1oc2ccccc2cc1-c1cn2cc(Cc3ccccc3F)sc2n1
- Potency: inconclusive: 0.736 µM [inhibitor, full curve]

SMILES: CCn1c(CN2CCC(C)CC2)nc2cc(NC(=O)c3ccccc3[N+](=O)[O-])ccc21
- Potency: inactive

SMILES: Cc1ccccc1NC(=O)c1c(NC(=O)C(F)(F)F)sc2c1CCCCC2
- Potency: inconclusive: 26.1 µM [inhibitor, single point]

SMILES: COC(=O)c1cc2sc(C)cc2n1Cc1ccccc1
- Potency: inactive

SMILES: COc1ccc(-c2nc3cc(NC(=O)Cc4ccc(Cl)cc4)ccc3o2)cc1OC
- Potency: inconclusive: 11.7 µM [inhibitor, partial curve, poor fit]

SMILES: Cc1ccccc1OCC(O)Cn1c(=N)n(CCN2CCCCC2)c2ccccc21 (stereo not drawn)
- Potency: inconclusive: 23.3 µM [inhibitor, single point]

SMILES: CCCn1c2ccc(C)cc2c2nnc(SCCN3CCCCC3)nc21
- Potency: inconclusive: 3.29 µM [inhibitor, partial curve]

SMILES: C#CCN1C(=O)C(O)(CC(=O)c2ccc(OC)c(OC)c2)c2cc(Br)ccc21 (stereo not drawn)
- Potency: inconclusive: 2.07 µM [inhibitor, full curve, poor fit]

SMILES: O=C(COc1ccccc1-c1nc(-c2ccccc2)no1)Nc1cccc([N+](=O)[O-])c1
- Potency: inconclusive: 1.17 µM [inhibitor, full curve]

SMILES: CCCN1C(=O)C(O)(CC(=O)c2ccc(CC)cc2)c2cc(Br)ccc21 (stereo not drawn)
- Potency: inconclusive: 6.56 µM [inhibitor, partial curve, poor fit]

SMILES: COC(=O)c1ccccc1NC(=O)CSc1n[nH]c(CC(C)C)n1
- Potency: inactive

SMILES: Cc1ccc(NC(=O)c2ccc(CN3CCN(C)CC3)cc2)cc1Nc1nccc(-c2cccnc2)n1
- Potency: inactive
